Measurements reported in PubChem BioAssay AID1259405 (NCATS, 2018)
The deposit covers about 50,000 reagents; below is a part drawn at random. Over the whole deposit, about 4,000 (8%) are marked active. 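Mouse siRNA library applied to hamster cells; one well for each siRNA.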 Reagents against one gene are numbered here. No sequences are given here.

Screen: 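Mouse-designed siRNAs used to find CHO productivity engineering targets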 (primary screen)
Cell system: Chinese hamster CHO-K1 ovary cells with stable secreted eGFP expression
Reagents: single siRNA against mouse genes, 0.8 pmol siRNA per well (2 µl of 400 nM stock)
Duration: 3 days
Detection: 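Per-well intracellular GFP measured by laser scanning cytometry, plus viability from ATP luminescence, each relative to plate median of non-targeting control wells, in %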
Direction: GFP, % of control: higher = more GFP per well, higher productivity; viability (ATP), % of control: higher = more viable cells (more ATP)
Active means: 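Called active when intracellular GFP, relative to negative control, is at or above 120%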

no.	gene	reagent no.	GFP, % of control	viability (ATP), % of control	Call
1	Podxl2 (podocalyxin-like 2)	1	49.3	86.6	inactive
2	Podxl2 (podocalyxin-like 2)	2	123	82.6	active
3	Podxl2 (podocalyxin-like 2)	3	160	67.5	active
4	Sack1h (scaffolding CK1 anchoring protein H)	1	124	98.3	active
5	Sack1h (scaffolding CK1 anchoring protein H)	2	58.3	70.2	inactive
6	Sack1h (scaffolding CK1 anchoring protein H)	3	96.3	82	inactive
7	Vmp1 (vacuole membrane protein 1)	1	125	83.4	active
8	Vmp1 (vacuole membrane protein 1)	2	67.3	82.4	inactive
9	Vmp1 (vacuole membrane protein 1)	3	72.7	79.3	inactive
10	Osr1 (odd-skipped related transcription factor 1)	1	51.6	58.7	inactive
11	Osr1 (odd-skipped related transcription factor 1)	2	78.5	79.5	inactive
12	Osr1 (odd-skipped related transcription factor 1)	3	63.3	45.6	inactive
13	Tnn (tenascin N)	1	107	87.5	inactive
14	Tnn (tenascin N)	2	119	122	inactive
15	Tnn (tenascin N)	3	91.9	83.8	inactive
16	Psg28 (pregnancy-specific beta-1-glycoprotein 28)	1	65	51.3	inactive
17	Psg28 (pregnancy-specific beta-1-glycoprotein 28)	2	53.6	44.2	inactive
18	Psg28 (pregnancy-specific beta-1-glycoprotein 28)	3	57.6	95.4	inactive
19	Serpina3n (serine (or cysteine) peptidase inhibitor, clade A, member 3N)	1	69.1	91.3	inactive
20	Serpina3n (serine (or cysteine) peptidase inhibitor, clade A, member 3N)	2	84.5	94.8	inactive
21	Serpina3n (serine (or cysteine) peptidase inhibitor, clade A, member 3N)	3	121	70.5	active
22	Slc36a3	1	58.9	105	inactive
23	Slc36a3	2	93.6	31.7	inactive
24	Slc36a3	3	88.6	82.8	inactive
25	Fndc3c1 (fibronectin type III domain containing 3C1)	1	81.8	73	inactive
26	Fndc3c1 (fibronectin type III domain containing 3C1)	2	63.3	77.9	inactive
27	Fndc3c1 (fibronectin type III domain containing 3C1)	3	66.4	85.8	inactive
28	Pglyrp1 (peptidoglycan recognition protein 1)	1	137	78.3	active
29	Pglyrp1 (peptidoglycan recognition protein 1)	2	97.8	75.5	inactive
30	Pglyrp1 (peptidoglycan recognition protein 1)	3	55.5	39.1	inactive
31	Rag1 (recombination activating 1)	1	154	105	active
32	Rag1 (recombination activating 1)	2	95.9	77	inactive
33	Rag1 (recombination activating 1)	3	58.9	72.5	inactive
34	Scrn1 (secernin 1)	1	62.9	73.1	inactive
35	Scrn1 (secernin 1)	2	56.8	49.8	inactive
36	Scrn1 (secernin 1)	3	81.1	93.4	inactive
37	Zfp353-ps (zinc finger protein 353, pseudogene)	1	86.2	55.8	inactive
38	Zfp353-ps (zinc finger protein 353, pseudogene)	2	53	74.7	inactive
39	Zfp353-ps (zinc finger protein 353, pseudogene)	3	74	73.7	inactive
40	Rbck1 (RanBP-type and C3HC4-type zinc finger containing 1)	1	98.8	89.8	inactive
41	Rbck1 (RanBP-type and C3HC4-type zinc finger containing 1)	2	119	104	inactive
42	Rbck1 (RanBP-type and C3HC4-type zinc finger containing 1)	3	71.9	69.6	inactive
43	Cabin1 (calcineurin binding protein 1)	1	72.6	84.5	inactive
44	Cabin1 (calcineurin binding protein 1)	2	86.6	93.9	inactive
45	Cabin1 (calcineurin binding protein 1)	3	92.6	137	inactive
46	Gja10 (gap junction protein, alpha 10)	1	96.1	33.2	inactive
47	Gja10 (gap junction protein, alpha 10)	2	72.1	60.8	inactive
48	Gja10 (gap junction protein, alpha 10)	3	84.2	64.7	inactive
49	Cavin1 (caveolae associated 1)	1	59.5	81.8	inactive
50	Cavin1 (caveolae associated 1)	2	65.3	71.7	inactive
51	Cavin1 (caveolae associated 1)	3	76.8	76.1	inactive
52	B3galt4	1	96.1	105	inactive
53	B3galt4	2	113	170	inactive
54	B3galt4	3	88.5	108	inactive
55	Plcxd1	1	95.4	76.4	inactive
56	Plcxd1	2	75.7	72.9	inactive
57	Plcxd1	3	101	96.9	inactive
58	Prkn (parkin RBR E3 ubiquitin protein ligase)	1	70.3	65.7	inactive
59	Prkn (parkin RBR E3 ubiquitin protein ligase)	2	95.5	83.5	inactive
60	Prkn (parkin RBR E3 ubiquitin protein ligase)	3	77.4	98.5	inactive
61	Psd4 (pleckstrin and Sec7 domain containing 4)	1	69.8	87.2	inactive
62	Psd4 (pleckstrin and Sec7 domain containing 4)	2	112	124	inactive
63	Psd4 (pleckstrin and Sec7 domain containing 4)	3	49	35.6	inactive
64	Fgfrl1 (fibroblast growth factor receptor-like 1)	1	65.7	50	inactive
65	Fgfrl1 (fibroblast growth factor receptor-like 1)	2	55.8	92.3	inactive
66	Fgfrl1 (fibroblast growth factor receptor-like 1)	3	31.1	25.5	inactive
67	Upk2 (uroplakin 2)	1	96	72.4	inactive
68	Upk2 (uroplakin 2)	2	56	77.3	inactive
69	Upk2 (uroplakin 2)	3	52.5	50.9	inactive
70	Gabra1 (gamma-aminobutyric acid type A receptor subunit alpha 1)	1	93.1	94.2	inactive
71	Gabra1 (gamma-aminobutyric acid type A receptor subunit alpha 1)	2	64.9	60	inactive
72	Gabra1 (gamma-aminobutyric acid type A receptor subunit alpha 1)	3	46.9	49.1	inactive
73	Grik5 (glutamate receptor, ionotropic, kainate 5 (gamma 2))	1	79.2	81	inactive
74	Grik5 (glutamate receptor, ionotropic, kainate 5 (gamma 2))	2	56.4	38.6	inactive
75	Grik5 (glutamate receptor, ionotropic, kainate 5 (gamma 2))	3	59.8	66.6	inactive
76	Cdc14b (CDC14 cell division cycle 14B)	1	98.8	92.6	inactive
77	Cdc14b (CDC14 cell division cycle 14B)	2	101	83.9	inactive
78	Cdc14b (CDC14 cell division cycle 14B)	3	74.9	70.2	inactive
79	Mapk8ip3 (mitogen-activated protein kinase 8 interacting protein 3)	1	63.8	62	inactive
80	Mapk8ip3 (mitogen-activated protein kinase 8 interacting protein 3)	2	70.9	80.9	inactive
81	Mapk8ip3 (mitogen-activated protein kinase 8 interacting protein 3)	3	96.7	88.7	inactive
82	Socs3 (suppressor of cytokine signaling 3)	1	93.5	95.2	inactive
83	Socs3 (suppressor of cytokine signaling 3)	2	77.8	91.2	inactive
84	Socs3 (suppressor of cytokine signaling 3)	3	102	85.4	inactive

Just “GFP, % of control” (7 entries from above):
Upk2 (uroplakin 2) #2: 56
Upk2 (uroplakin 2) #3: 52.5
Gabra1 (gamma-aminobutyric acid type A receptor subunit alpha 1) #1: 93.1
Gabra1 (gamma-aminobutyric acid type A receptor subunit alpha 1) #2: 64.9
Gabra1 (gamma-aminobutyric acid type A receptor subunit alpha 1) #3: 46.9
Grik5 (glutamate receptor, ionotropic, kainate 5 (gamma 2)) #1: 79.2
Grik5 (glutamate receptor, ionotropic, kainate 5 (gamma 2)) #2: 56.4
